Experimental data reported in PubChem BioAssay AID2685 (National Center for Advancing Translational Sciences (NCATS), 2010).
“And” between values parts separate entries of the source, which are not always exact repeats. Equal values may be shown once. The list shows a part of the results. Further columns of the screen follow, without active or inactive calls. Most of these compounds were active or inconclusive in the main read-out, so they are no random draw. Potencies come from curve fits of mixed quality, noted in brackets.

Experiment: qHTS Assay for Lipid Storage Modulators in Drosophila S3 Cells;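 as to cell number change: cells counted by Cell Tracker Red CMTPX staining in the red channel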
Conditions: BODIPY lipid droplet fluorescence, 18-24 h; for cell number change: measured here: cell count max response, cells fed with added oleic acid
Procedure, shortened: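 Drosophila S3 cells got compounds at several concentrations plus oleic acid (400 uM solution). Laser-scanning cytometry with 488 nm excitation read lipid droplets at 500-530 nm and cells at 575-640 nm. Percent activity was relative to 20 uM Triacsin C.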

[1] = measured here: lipid fluorescence (Fed channel) AC50, cells fed with added oleic acid
[2] = measured here: cell number channel AC50, cells fed with added oleic acid

SMILES	cell number change	AC50 [1]	AC50 [2]
COc1ccccc1OCC(=O)Nc1ccc(S(=O)(=O)Nc2nccs2)cc1	28.9%	35.5 µM [falling, single point]	–
O=C(NCc1ccncc1)c1ccc(NS(=O)(=O)c2cccc([N+](=O)[O-])c2)cc1	2.56%	6.51 µM [falling, single point]	–
COC(=O)C1=C(N)Oc2cc(C)[nH]c(=O)c2C1c1ccncc1 (stereo unspecified)	–	23.1 µM [rising, partial curve]	1.84 µM [rising, partial curve]
CC(C)C[C@H](NC(=O)OC(C)(C)C)c1n[nH]c(=S)n1N	1.58%	–	–
CCOP(=O)(OCC)C(NC(=O)Nc1ccc(C)c(Cl)c1)c1ccccc1 (stereo unspecified)	-2%	–	–
O=C(CNC1CCCC1)Nc1ccc(S(=O)(=O)N2CCCCC2)cc1	2.61%	6.51 µM [falling, single point]	–
S=c1[nH]nc(-c2ccn[nH]2)n1-c1ccccc1Cl	-4%	–	–
CCCCn1c(SCc2nc3ccccc3s2)nc2cc(S(N)(=O)=O)ccc21	120%	0.103 µM [rising, full curve, poor fit]	2.91 µM [rising, partial curve]
Cn1c(SCC(=O)c2ccc(F)cc2)nnc1-c1ccccn1	22.1%	1.03 µM [rising, partial curve]	–
Cc1cccc2c(SCC(N)=O)nc(-c3ccccc3)nc12	42.7%	–	32.6 µM [rising, single point]
Cc1ccc(C)c(S(=O)(=O)N2CCN(C(=O)CCNS(=O)(=O)c3ccc(C)c(C)c3)CC2)c1	-21.1%	32.6 µM [falling, single point]	–
O=C(C1CCCO1)N(c1cccc(Cl)c1)C1C=CS(=O)(=O)C1 (stereo unspecified)	-4.88%	–	–
CC(O)C1CCC2C3CC[C@H]4CC(O)CCC4(C)C3CC3(OCCO3)C12C (stereo partly specified)	-38.9%	5.17 µM [falling, single point]	0.461 µM [falling, partial curve]
COCCN(C(=O)CSc1nnc(-c2ccccc2C)n1C)c1c(N)n(Cc2ccccc2)c(=O)[nH]c1=O	–	–	0.00411 µM [rising, full curve, poor fit]
CCNC(=O)COc1ccc(F)cc1C(=O)c1cnn(-c2ccccc2)c1	4.62%	6.51 µM [rising, single point]	–
CC(C)NC(=O)C1CCN(C(=O)c2cc3sccc3n2Cc2ccc(F)cc2)CC1	-0.817%	–	–
COc1ccc(C2c3c(ncn(CCCO)c3=N)Oc3ccc4ccccc4c32)cc1 (stereo unspecified)	-10.7%	–	–
CC1CCCCN1C(=O)CSc1nnc(-c2ccc(Cl)s2)o1 (stereo unspecified)	–	–	6.51 µM [rising, single point]
COc1ccc(C2CC(c3ccc4ccccc4c3)=NN2C(=O)CSc2ncccn2)cc1 (stereo unspecified)	-16.4%	29.1 µM [falling, single point]	–
COc1ccc(CCNC(=O)C2CCN(S(=O)(=O)c3ccc(F)cc3)CC2)cc1	-1.69%	–	–

5 entries from above in another layout:

| SMILES | cell number change | AC50 [1] | AC50 [2] |
| --- | --- | --- | --- |
| O=C(NCc1ccncc1)c1ccc(NS(=O)(=O)c2cccc([N+](=O)[O-])c2)cc1 | 2.56% | 6.51 µM [falling, single point] | – |
| COC(=O)C1=C(N)Oc2cc(C)[nH]c(=O)c2C1c1ccncc1 (stereo unspecified) | – | 23.1 µM [rising, partial curve] | 1.84 µM [rising, partial curve] |
| O=C(CNC1CCCC1)Nc1ccc(S(=O)(=O)N2CCCCC2)cc1 | 2.61% | 6.51 µM [falling, single point] | – |
| Cc1ccc(C)c(S(=O)(=O)N2CCN(C(=O)CCNS(=O)(=O)c3ccc(C)c(C)c3)CC2)c1 | -21.1% | 32.6 µM [falling, single point] | – |
| CC(O)C1CCC2C3CC[C@H]4CC(O)CCC4(C)C3CC3(OCCO3)C12C (stereo partly specified) | -38.9% | 5.17 µM [falling, single point] | 0.461 µM [falling, partial curve] |

Remaining list, next part

SMILES	cell number change	AC50 [1]	AC50 [2]
Cn1cccc1/C=N\NC(=O)c1cncc(Br)c1	17.4%	23.1 µM [rising, single point]	–
COc1ccccc1CNS(=O)(=O)c1ccc2c(c1)CC(C)N2C(=O)C1CCC1 (stereo unspecified)	–	6.51 µM [falling, partial curve]	–
Cc1c(-c2ccccc2)nc2ccccc2c1C(=O)OCC(=O)Nc1ncc(C(F)(F)F)cc1Cl	–	0.164 µM [rising, full curve, poor fit]	–
COCCOCC(O)CN1CCN(c2ccccc2)CC1 (stereo unspecified)	-35.5%	–	20.6 µM [falling, single point]
C=CCNC(=O)C1CCN(c2ccc(S(=O)(=O)N3CCOCC3)cc2Cl)CC1	-12.4%	–	–
Cc1nc2ccc(S(=O)(=O)NCC(=O)N3CCc4ccccc4C3)cc2s1	54.2%	6.51 µM [falling, single point]	6.51 µM [falling, single point]
CCn1c(SCC(=O)Nc2ccc(OC)c(OC)c2)nc2c(c1=O)SCC2	4.99%	0.092 µM [falling, full curve, poor fit]	–
COc1ccc(/C=C2\SC(=S)N(CC(=O)OCC(=O)Nc3cc(Cl)cc(Cl)c3)C2=O)cc1	14.8%	2.59 µM [rising, full curve]	–
COc1cc(NC(=O)C2Cc3ccccc3CN2S(C)(=O)=O)cc(OC)c1 (stereo unspecified)	40.4%	–	14.6 µM [rising, partial curve, poor fit]
O=C(Cc1cccs1)Nc1ccc(Cl)cc1	9.17%	10.3 µM [rising, partial curve, poor fit]	–
COc1ccc(CCc2nnc(CCC(=O)NCC3CCCO3)o2)cc1 (stereo unspecified)	-84%	–	29.1 µM [falling, single point]
CCCCC(=O)Nc1ccc(NC(=O)C(C)C)cn1	-19.7%	–	–
CCOC(=O)N1CCC(NC(=O)c2ccc(Cl)cc2)CC1	-20.8%	–	0.651 µM [falling, full curve, poor fit]
COC(=O)CSc1nc(C)cc(Oc2ccccc2)n1	-144%	23.1 µM [falling, partial curve]	18.4 µM [falling, partial curve]
CCN(C(=O)COC(=O)CNC(=O)c1ccc2ccccc2c1)C1CCS(=O)(=O)C1 (stereo unspecified)	0.782%	–	–
S=c1[nH]nc(COc2ccccc2)n1/N=C/c1ccc(Br)cc1	11.1%	–	–
COc1cc(C(c2sc3nc(C)nn3c2O)N2CCC3(CC2)OCCO3)cc(OC)c1OC (stereo unspecified)	39%	14.6 µM [rising, partial curve]	11.6 µM [rising, single point]
COc1ccccc1NC(=O)c1cc(S(=O)(=O)N2CCOCC2)ccc1Cl	0.191%	1.84 µM [rising, partial curve]	–
CCCCCCCCCCCCCCCCn1cc[n+](C)c1	-75.4% and -65.3%	4.61 µM [falling, full curve] and 2.59 µM [falling, full curve]	2.91 µM [falling, full curve] and 3.66 µM [falling, full curve]
COc1cc(OC)c(OC)cc1CN1CCN(c2ccc(F)cc2)CC1	23.2%	0.13 µM [falling, full curve, poor fit]	–

SMILES	cell number change	AC50 [1]	AC50 [2]
O=C(CN1C(=O)c2ccccc2S1(=O)=O)Nc1ncc([N+](=O)[O-])s1	4.65%	6.51 µM [rising, single point]	–
Cc1ccc(CN(Cc2cc3cc(C)ccc3[nH]c2=O)C(=O)N2CCOCC2)cc1	-20.2%	20.6 µM [rising, single point]	–
CCOc1ccc(C(=O)OCC(=O)N(Cc2ccccc2)Cc2ccccc2)cc1OC	-7.99%	2.31 µM [rising, partial curve, poor fit]	–
CCC(=O)C1CCCN(C(=O)CCc2nnc(-c3ccc4c(c3)OCO4)o2)C1 (stereo unspecified)	20%	0.82 µM [rising, full curve, poor fit]	–
Cc1ccc(NC(=O)Cn2c(O)c(N=NS(=O)(=O)c3ccc(C)cc3)c3ccccc32)cc1	17.6%	25.9 µM [rising, single point]	–
CCOc1ccc(CCNC(=O)CCC(=O)N2CCSc3ccccc32)cc1OCC	-41.5%	2.06 µM [falling, partial curve, poor fit]	8.2 µM [falling, partial curve, poor fit]
COc1ccccc1-c1ccc(SCc2ccccc2)nn1	34.7%	18.4 µM [rising, single point]	18.4 µM [rising, single point]
Cn1c(SCC(=O)N2CCN(c3ccccc3)CC2)nnc1-c1ccco1	-19.7%	–	–
CCn1c2ccccc2c2cc(NC(=O)CSc3nnc(C4CC4)n3Cc3ccco3)ccc21	-126%	29.1 µM [falling, single point]	29.1 µM [falling, single point]
N/C(=N\OC(=O)c1ccc(Cl)cc1)c1ccccn1	30%	23.1 µM [rising, partial curve]	29.1 µM [rising, single point]
O=C(O)CCNC(=O)/C(=C/C=C/c1ccccc1)NC(=O)c1ccccc1	-2.12%	0.58 µM [falling, single point]	–
COc1ccc2nc(SC)cc(C)c2c1	6.42%	6.51 µM [falling, single point]	4.11 µM [falling, single point]
O=C(CSc1nc(-c2ccccc2)cc(C(F)(F)F)n1)NCc1ccco1	0.369%	20.6 µM [rising, single point]	–
CCCOc1ccccc1C(=O)NCCCC(=O)O	-0.204%	2.06 µM [falling, partial curve, poor fit]	–
COCCN(C(=O)COC(=O)c1cc(C)n(-c2ccccc2)c1C)c1c(N)n(Cc2ccccc2)c(=O)[nH]c1=O	27.1%	–	–
COC(=O)Cc1c(C(=O)OC)nnn1-c1cccc(C(F)(F)F)c1	27.7%	29.1 µM [rising, partial curve, poor fit]	–
Cc1ccc(C(=O)CSc2nnc(-c3c[nH]c4ccccc34)o2)cc1	–	0.411 µM [rising, partial curve, poor fit]	–
CC(NC(=O)CCC(=O)NC(C)c1ccccc1)c1ccccc1 (stereo unspecified)	1.62%	29.1 µM [rising, partial curve, poor fit]	–
Cc1ccc(S(=O)(=O)N2CCCOC2CNC(=O)C(=O)NCCc2c[nH]c3ccccc23)cc1 (stereo unspecified)	23.7%	–	2.59 µM [rising, single point]
